This is an account of results in PubChem BioAssay AID1347426 (Functional Genomics Laboratory (NCATS/FGL), 2020).

The whole screen tested about 31,000 sequences, of which about 1,400 (4.5%) were called active.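 How the source made its calls: active means median seed-adjusted z-score above 1 or below -1; inactive means the rest.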 The list shows a part of the results.

The nature of this test: Novel Modifiers of Survival Motor Neuron (SMN) Protein: Gene Identification via Genome-wide siRNA Screen. The conditions noted are these: HEK293T SMN2-luciferase reporter, siRNA knockdown, 72 h; actives lie on both sides. From the text: Spinal muscular atrophy (SMA) is the most common neuromuscular autosomal recessive disorder and one of the leading genetic causes of infant death. SMA results from mutations inducing loss of function or deletion in the survival of motor neuron-1 gene (SMN1), leading to deficiency of the survival motor neuron (SMN) protein. Although a second nearly identical gene, SMN2, is retained in humans, its expression primarily produces an aberrantly spliced isoform that is largely unstable and quickly degraded. We performed a genome-wide RNAi screen using a cell-based reporter assay to identify genes and pathways that modulate SMN protein stability. The screen identified over 200 genes that led to the greatest increase or decrease in luciferase expression.
Using HEK293T cells stably expressing a luciferase reporter that combines the promoter and splicing based cassettes in tandem with the major portion of the native SMN2 cDNA with luciferase, we performed a genome-wide RNAi screen to identify modulators of SMN protein levels. Luciferase is expressed when full-length SMN protein is generated with luminescence signal proportional to SMN protein levels. Our luciferase-based reporter assay was used to screen Ambion Silencer Select Human Druggable Genome siRNA library (10418 genes, 3 unique siRNAs per gene) using lipid-based reverse transfection.
Briefly, 1 pmol of each siRNA was spotted to a well of a 384-well plate (Corning, Corning, NY) and 20 microL of serum-free DMEM containing […] of Lipofectamine RNAiMax (Life Technologies, Carlsbad, CA) was then added to each well. Transfected cells were maintained at 37 degrees C in 5% CO2 for 72 hours, 20 microL of ONE-Glo Reagent (Promega) was added to wells for luciferase quantification. Raw luminescence reads were normalized to Ambion(R) Silencer(R) Negative Control #2 siRNA, then log10 transformed. A robust statistical measure of median absolute deviation (MAD) to standardize siRNA activities from each screen. Common Seed Analysis was used to help prioritize clean hits as opposed to those appearing to arise from seed based off-target effects. Candidate modulators were defined as the genes having a MAD score greater than 1.0 or less than -1.0.
(In general: A reporter such as luciferase makes a cellular process visible.)
GCCUGUCCAGGAUCGUGAATT against CTRB1: the median seed-adjusted z-score is inactive: -0.214.
For GGAGCUCUCUUUGUUGGAATT against ERAL1, the median seed-adjusted z-score was inactive: -0.46.
Next, CUAUAGAUGUGAUCAGUGUTT against ZNF32: inactive: 0.034.
To GGAGGCUAUUCAUAAGGUATT against GTF3C2 belongs inactive: 0.32; to GGAAAUCUCCUGCUCGAAATT against PIP5K3, inactive: 0.00523.
On to GACUCUAAGUGAGACUGAATT against LRFN1, for which the median seed-adjusted z-score is inactive: 0.605.
Next, CCUUUGUCAAAGAAUCGAATT against DNAJC9: inactive: 0.0545.
To GCAAUUUCUUGUUUCGUUATT against SLC9A6 belongs inactive: -0.0831.
Regarding UGAUUGCUUUCAAACUGGATT against PCBP4, the median seed-adjusted z-score was inactive: -0.269.
With GGAACAAAUAACCACGAAATT against PAFAH1B2, the median seed-adjusted z-score was inactive: 0.0991.
To GCGUGGUCAACGAUCUGUATT against FAM84B belongs inactive: -0.431; to CCUACUUACCAGCCCUUGATT against SPAG6, inactive: -0.439; to GAGCUGACGUGAGAAAUAUTT against B3GNT3, inactive: 0.439.
To CAACUAUGCAGACUAUUCATT against SYT13 belongs inactive: 0.275; to GAAAGACAACCAUCCUGAATT against ARL2, inactive: 0.0301.
For the sequence GGCCUAUGCAAAAAGAGGATT against BAD, the median seed-adjusted z-score was inactive: 0.
To AAUUCGAUAUGUUCAGCAATT against GPX4 belongs active: -1.18.
Next, CCCAAAUUCUGGUAACAGUTT against PCDHGA6: inactive: 0.0559.
Next, GGAUUUGCCUCUCGAGAUATT against ABCB11: inactive: 0.14; GCAAAGCUCUAAAGCCCAATT against TXNDC12: inactive: -0.154.
On to GUCUGAUGAUCACAAAAUATT against RRAGC, for which the median seed-adjusted z-score is inactive: -0.557.
Next, GCCUGAAAGGUGUAGACUUTT against ETS1: inactive: -0.0588; UAAGAACACCGUUACCCAATT against NLGN4X: inactive: -0.1.
With GGAAAAACAUGACUAGCAATT against EYA3, the median seed-adjusted z-score is inactive: -0.0191.
Next, CAUUCGUCGUAACUUUACATT against MIPEP: inactive: -0.169; CAACAUGGAUGGUCAAGGATT against IL6R: inactive: -0.441; GCCUUACCUGGAGAACUGATT against VPS26A: active: -1.55.
To CCAACUAUCCCAGCAAGUATT against NETO1 belongs inactive: 0.0504.
To GGAGAUAUCCAUGCUAUAATT against CDH8 belongs inactive: 0.169; to GGACGAGCCUCAUGAAUGATT against SEC11B, active: 1.04; to GCUGGAUCACGAACAGGUATT against SAE1, inactive: 0.831.
For CAAAGAUCCAAGACUAUCATT against JAK2, the median seed-adjusted z-score is inactive: 0.163.
Next, GUAGGACUCUCAUUCGGGATT against CCND1: inactive: -0.912; GCUUCACACUGAAUAGACATT against ZNF17: inactive: 0.579; CAAUAAGACCUAUUCAACUTT against SNAI2: inactive: 0.
To GGACAAAUCAGAGCUUAAATT against G3BP1 belongs inactive: -0.593; to GUGAAACCCGAGUAUCUUATT against ZADH2, inactive: -0.47.
To CAGCAUACGUAGGAAAUCUTT against EIF4H belongs inactive: 0.0349; to GUACAGGCCCUACAUCAUUTT against LRP5, active: -1.
With CGUGUGCGACAGUGACAUATT against RCAN2, the median seed-adjusted z-score is inactive: -0.185.
To CAUCGGAAAGACAAACUAUTT against ZNF699 belongs inactive: -0.428; to CCUACAUCACGGAAACGGATT against PTPN3, inactive: -0.535; to GGUGGGUGGUAAGAGGGAATT against AQP2, inactive: -0.433.
Regarding GAACCAACACGGAAAGAAATT against RRAS2, the median seed-adjusted z-score was inactive: -0.0229.
To CCAUCACCCAUGUUCGAGATT against GRIK3 belongs inactive: 0.128; to GCAGCACGAAGGAUACUGATT against ABCA4, active: -1.09.
As for CUUUAAACAAUUCCGUUUATT against GABRG3, the median seed-adjusted z-score was inactive: 0.
As to CAAGAACUAUUCUUAUGCATT against ITSN1, the median seed-adjusted z-score was inactive: 0.00218.
Next, CCAACCAUGUGACACCUUUTT against AUP1: inactive: 0.305; CACUAGCCUUGGAAUUGGATT against TREH: inactive: 0.396.
Next, CAUAUUAACCGGUGGAGAATT against EMX2: inactive: 0.324; GAGGACAACUUGUACAAGATT against ITGB2: inactive: -0.765; CCCGUACUACAUAUAAGAATT against ZNF506: inactive: -0.235.
To GGACUUGUGCAGAAAAUCATT against NELL2 belongs inactive: 0.0918.
